Results are given in words; binding and its absence hold for the method and conditions named. In cells and extracts the contact can be indirect. Some results given as binding are weak or reduced against the parent protein; the word gives no strength.
How the values were obtained:
[1] = molecular target: glycoprotein 130 (human (endogenous in OKF6/TERT-2)) (UniProt P40189); assay: proximity ligation; OKF6/TERT-2 cells on fibronectin-treated coverslips, fixed with 2% paraformaldehyde; two of the antibodies (goat anti-IL22RA, mouse anti-IL10RB, rabbit anti-gp130, 5 ug/ml each) in combination overnight at 4 °C; Duolink In Situ Red; confocal microscopy, average number of complexes per cell
[2] = molecular target: interleukin-10 receptor subunit beta (human (endogenous in OKF6/TERT-2)) (UniProt Q08334); assay: as above
[3] = molecular target: glycoprotein 130 (human (endogenous in OKF6/TERT-2)) (UniProt P40189); assay: co-IP; OKF6/TERT-2 cells treated without or with 50 ng/ml human IL-22 for 3 h, cross-linked with 0.1 mM DSP for 30 min, lysed; 400 ug protein with 15 ug IL22RA1, IL10RB or gp130 antibody overnight at 4 °C; Protein A/G magnetic beads; SDS-PAGE
[4] = molecular target: interleukin-10 receptor subunit beta (human (endogenous in OKF6/TERT-2)) (UniProt Q08334); assay: as above

Chains of the proteins cited; added tags and fusions are not shown. Residues count along the entry.
UniProt P40189, residues 23-918: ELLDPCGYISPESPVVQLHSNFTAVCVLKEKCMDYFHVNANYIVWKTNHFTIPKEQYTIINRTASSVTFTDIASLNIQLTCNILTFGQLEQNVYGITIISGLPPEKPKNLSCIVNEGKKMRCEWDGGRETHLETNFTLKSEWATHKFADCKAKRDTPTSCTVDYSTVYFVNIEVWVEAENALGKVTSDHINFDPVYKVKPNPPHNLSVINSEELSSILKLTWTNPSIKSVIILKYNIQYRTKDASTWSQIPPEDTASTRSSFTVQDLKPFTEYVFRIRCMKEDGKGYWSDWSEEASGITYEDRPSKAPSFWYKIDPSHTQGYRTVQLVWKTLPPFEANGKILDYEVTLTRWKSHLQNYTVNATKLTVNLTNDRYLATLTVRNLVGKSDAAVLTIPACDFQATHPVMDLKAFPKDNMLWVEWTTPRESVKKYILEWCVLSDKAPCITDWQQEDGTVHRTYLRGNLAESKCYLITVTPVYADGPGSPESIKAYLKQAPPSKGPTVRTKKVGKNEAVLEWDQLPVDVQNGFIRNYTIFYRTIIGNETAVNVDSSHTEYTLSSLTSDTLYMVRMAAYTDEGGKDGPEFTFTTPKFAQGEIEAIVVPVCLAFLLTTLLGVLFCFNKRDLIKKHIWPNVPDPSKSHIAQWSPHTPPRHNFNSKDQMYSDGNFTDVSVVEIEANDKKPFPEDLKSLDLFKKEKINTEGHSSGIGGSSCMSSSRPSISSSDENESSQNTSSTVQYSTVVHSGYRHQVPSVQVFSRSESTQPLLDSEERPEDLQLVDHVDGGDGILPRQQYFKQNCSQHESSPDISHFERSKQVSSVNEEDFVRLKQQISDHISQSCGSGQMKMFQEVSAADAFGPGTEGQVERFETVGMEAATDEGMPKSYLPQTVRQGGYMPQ
UniProt Q08334, residues 20-325: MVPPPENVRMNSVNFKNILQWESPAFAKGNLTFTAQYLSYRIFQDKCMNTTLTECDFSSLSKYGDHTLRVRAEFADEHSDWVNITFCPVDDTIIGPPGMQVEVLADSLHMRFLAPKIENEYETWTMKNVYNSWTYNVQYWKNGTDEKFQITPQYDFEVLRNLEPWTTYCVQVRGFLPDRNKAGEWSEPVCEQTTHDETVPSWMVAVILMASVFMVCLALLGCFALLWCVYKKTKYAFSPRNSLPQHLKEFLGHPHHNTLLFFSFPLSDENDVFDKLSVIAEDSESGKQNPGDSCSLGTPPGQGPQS

Measured: binding

B1: interleukin-22 receptor subunit alpha-1 (receptor, UniProt Q8N6P7 16-574)
chain: HAPEDPSDLLQHVKFQSSNFENILTWDSGPEGTPDTVYSIEYKTYGERDWVAKKGCQRITRKSCNLTVETGNLTELYYARVTAVSAGGRSATKMTDRFSSLQHTTLKPPDVTCISKVRSIQMIVHPTPTPIRAGDGHRLTLEDIFHDLFYHLELQVNRTYQMHLGGKQREYEFFGLTPDTEFLGTIMICVPTWAKESAPYMCRVKTLPDRTWTYSFSGAFLFSMGFLVAVLCYLSYRYVTKPPAPPNSLNVQRVLTFQPLRFIQEHVLIPVFDLSGPSSLAQPVQYSQIRVSGPREPAGAPQRHSLSEITYLGQPDISILQPSNVPPPQILSPLSYAPNAAPEVGPPSYAPQVTPEAQFPFYAPQAISKVQPSSYAPQATPDSWPPSYGVCMEGSGKDSPTGTLSSPKHLRPKGQLQKEPPAGSCMLGGLSLQEVTSLAMEESQEAKSLHQPLGICTDRTSDPNVLHSGEEGTPQYLKGQLPLLSSVQIEGHPMSLPLQPPSRPCSPSDQGPSPWGLLESLVCPKDEAKSPAPETSDLEQPTELDSLFRGLALTVQWES
binds: all assays above
